Measurements from publication PMC11005723, “Development of Complementary Photo‐arginine/lysine to Promote Discovery of Arg/Lys hPTMs Interactomes” (Advanced Science, 2024).
This continues a long series; more values of the same kind are listed elsewhere.

Tested on: HEK293T nuclear lysates
Assay: SILAC‐based pull‐down proteomics H4K5me1/H4K5 (probes 6/5)
Assay type: binding, human

probe 6: H4K5me peptide probe with photo‐arginine R(dz) and K(biotin) (SGRGKGGKGLGKGGK; photo-arginine R(dz) at 3; monomethyl-lysine at 5; K(biotin) at 15)
C6 log (H4K5me/H4K5) (protein IWS1 (Q96ST2), run C6): -0.1301 | B6 log2 (H4K5me/H4K5) (protein K7EJT5 RPL22, run B6): 0.5097 | C6 log (H4K5me/H4K5) (protein K7EJT5 RPL22, run C6): 0.5097 | B6 log2 (H4K5me/H4K5) (protein K7EQ02 DAZAP1, run B6): 0.1345 | C6 log (H4K5me/H4K5) (protein K7EQ02 DAZAP1, run C6): 0.26 | B6 log2 (H4K5me/H4K5) (protein KDM1A (O60341), SILAC run B6): -0.2655 | C6 log (H4K5me/H4K5) (protein KDM1A (O60341), SILAC run C6): -0.2397 | B6 log2 (H4K5me/H4K5) (protein KHDRBS1 (Q07666), run B6): 0.02395 | C6 log (H4K5me/H4K5) (protein KHDRBS1 (Q07666), run C6): 0.003289 | B6 log2 (H4K5me/H4K5) (protein KHSRP (Q92945), run B6): 0.03286 | C6 log (H4K5me/H4K5) (protein KHSRP (Q92945), run C6): 0.1014 | B6 log2 (H4K5me/H4K5) (protein KIF4A (O95239), run B6): 0.09799 | C6 log (H4K5me/H4K5) (protein KIF4A (O95239), run C6): 0.09778 | B6 log2 (H4K5me/H4K5) (protein KIF22 (Q14807), SILAC run B6): -0.2292 | C6 log (H4K5me/H4K5) (protein KIF22 (Q14807), SILAC run C6): -0.1278 | B6 log2 (H4K5me/H4K5) (protein KIF23 (A0A2U3TZL8), run B6): 0.05551 | C6 log (H4K5me/H4K5) (protein KIF23 (A0A2U3TZL8), run C6): -0.1065 | B6 log2 (H4K5me/H4K5) (protein KPNA2 (P52292), run B6): 0.008279 | C6 log (H4K5me/H4K5) (protein KPNA2 (P52292), run C6): 0.08085 | B6 log2 (H4K5me/H4K5) (protein KPNA3 (O00505), SILAC run B6): -0.4637 | C6 log (H4K5me/H4K5) (protein KPNA3 (O00505), SILAC run C6): -0.3989 | B6 log2 (H4K5me/H4K5) (protein KPNB1 (Q14974), run B6): 0.05385 | C6 log (H4K5me/H4K5) (protein KPNB1 (Q14974), run C6): -0.005795 | B6 log2 (H4K5me/H4K5) (protein LRWD1 (Q9UFC0), SILAC run B6): -0.2394 | C6 log (H4K5me/H4K5) (protein LRWD1 (Q9UFC0), SILAC run C6): 0.1828 | B6 log2 (H4K5me/H4K5) (protein LUC7L3 (O95232), run B6): 0.1009 | C6 log (H4K5me/H4K5) (protein LUC7L3 (O95232), run C6): 0.08224 | B6 log2 (H4K5me/H4K5) (protein M0R366 FSD1, run B6): 0.5243 | C6 log (H4K5me/H4K5) (protein M0R366 FSD1, run C6): 0.5243 | B6 log2 (H4K5me/H4K5) (protein MATR3 (P43243), run B6): 0.01535 | C6 log (H4K5me/H4K5) (protein MATR3 (P43243), run C6): 0.06347 | B6 log2 (H4K5me/H4K5) (protein MAX (P61244), run B6): 0.0467 | C6 log (H4K5me/H4K5) (protein MAX (P61244), run C6): 0.04821 | B6 log2 (H4K5me/H4K5) (protein MCM2 (P49736), run B6): -0.008591 | C6 log (H4K5me/H4K5) (protein MCM2 (P49736), run C6): -0.03615 | B6 log2 (H4K5me/H4K5) (protein MCM3 (P25205), run B6): 0.09487 | C6 log (H4K5me/H4K5) (protein MCM3 (P25205), run C6): 0.04565 | B6 log2 (H4K5me/H4K5) (protein MCM4 (A0A3B3IU45), run B6): 0.002224 | C6 log (H4K5me/H4K5) (protein MCM4 (A0A3B3IU45), run C6): 0.007898 | B6 log2 (H4K5me/H4K5) (protein MCM5 (P33992), run B6): 0.007776 | C6 log (H4K5me/H4K5) (protein MCM5 (P33992), run C6): 0.01159 | B6 log2 (H4K5me/H4K5) (protein MCM7 (P33993), run B6): 0.108 | C6 log (H4K5me/H4K5) (protein MCM7 (P33993), run C6): 0.07892 | B6 log2 (H4K5me/H4K5) (protein MDC1 (Q14676), SILAC run B6): -0.2625 | C6 log (H4K5me/H4K5) (protein MDC1 (Q14676), SILAC run C6): -0.2425 | B6 log2 (H4K5me/H4K5) (protein MIF (P14174), run B6): -0.000255 | C6 log (H4K5me/H4K5) (protein MIF (P14174), run C6): -0.01982 | B6 log2 (H4K5me/H4K5) (protein MINA (Q8IUF8), SILAC run B6): -0.2702 | C6 log (H4K5me/H4K5) (protein MINA (Q8IUF8), SILAC run C6): -0.1372 | B6 log2 (H4K5me/H4K5) (protein MKI67 (P46013), run B6): 0.02037 | C6 log (H4K5me/H4K5) (protein MKI67 (P46013), run C6): 0.05713 | B6 log2 (H4K5me/H4K5) (protein MLLT1 (Q03111), run B6): 0.003242 | C6 log (H4K5me/H4K5) (protein MLLT1 (Q03111), run C6): 0.1369 | B6 log2 (H4K5me/H4K5) (protein MRPL39 (C9JG87), run B6): 0.01098 | C6 log (H4K5me/H4K5) (protein MRPL39 (C9JG87), run C6): 0.3616 | B6 log2 (H4K5me/H4K5) (protein MSH6 (P52701), run B6): 0.09571 | C6 log (H4K5me/H4K5) (protein MSH6 (P52701), run C6): 0.1425 | B6 log2 (H4K5me/H4K5) (protein MST4 (Q8NBY1), run B6): -0.02054 | C6 log (H4K5me/H4K5) (protein MST4 (Q8NBY1), run C6): -0.08653 | B6 log2 (H4K5me/H4K5) (protein MTA3 (E7EQY4), SILAC run B6): -0.2142 | C6 log (H4K5me/H4K5) (protein MTA3 (E7EQY4), SILAC run C6): -0.2184 | B6 log2 (H4K5me/H4K5) (protein MYL12A (P19105), run B6): 0.06852 | C6 log (H4K5me/H4K5) (protein MYL12A (P19105), run C6): -0.04364 | B6 log2 (H4K5me/H4K5) (protein NAA30 (Q147X3), SILAC run B6): -0.3436 | C6 log (H4K5me/H4K5) (protein NAA30 (Q147X3), SILAC run C6): -0.2425 | B6 log2 (H4K5me/H4K5) (protein NACA (F8W1N5), run B6): 0.00233 | C6 log (H4K5me/H4K5) (protein NACA (F8W1N5), run C6): 0.07334 | B6 log2 (H4K5me/H4K5) (protein NAP1L1 (F8VY35), SILAC run B6): -0.4826 | C6 log (H4K5me/H4K5) (protein NAP1L1 (F8VY35), SILAC run C6): -0.1556 | B6 log2 (H4K5me/H4K5) (protein NARS (O43776), run B6): -0.008764 | C6 log (H4K5me/H4K5) (protein NARS (O43776), run C6): -0.04829 | B6 log2 (H4K5me/H4K5) (protein NASP (P49321), run B6): -0.007075 | C6 log (H4K5me/H4K5) (protein NASP (P49321), run C6): 0.1001 | B6 log2 (H4K5me/H4K5) (protein NHP2 (D6RC52), SILAC run B6): -0.4318 | C6 log (H4K5me/H4K5) (protein NHP2 (D6RC52), SILAC run C6): -0.2745 | B6 log2 (H4K5me/H4K5) (protein NKRF (O15226), run B6): 0.03396 | C6 log (H4K5me/H4K5) (protein NKRF (O15226), run C6): 0.05617 | B6 log2 (H4K5me/H4K5) (protein NONO (Q15233), run B6): 0.1133 | C6 log (H4K5me/H4K5) (protein NONO (Q15233), run C6): -0.03087 | B6 log2 (H4K5me/H4K5) (protein NOP2 (P46087), run B6): 0.08704 | C6 log (H4K5me/H4K5) (protein NOP2 (P46087), run C6): -0.06309 | B6 log2 (H4K5me/H4K5) (protein NOP58 (Q9Y2X3), run B6): 0.08928 | C6 log (H4K5me/H4K5) (protein NOP58 (Q9Y2X3), run C6): 0.1146 | B6 log2 (H4K5me/H4K5) (protein NPEPPS (E9PLK3), SILAC run B6): -0.4695 | C6 log (H4K5me/H4K5) (protein NPEPPS (E9PLK3), SILAC run C6): -0.1673 | B6 log2 (H4K5me/H4K5) (protein NRF1 (Q16656), SILAC run B6): -0.3128 | C6 log (H4K5me/H4K5) (protein NRF1 (Q16656), SILAC run C6): 0.005664 | B6 log2 (H4K5me/H4K5) (protein NUCKS1 (Q9H1E3), SILAC run B6): -0.358 | C6 log (H4K5me/H4K5) (protein NUCKS1 (Q9H1E3), SILAC run C6): 0.05851 | B6 log2 (H4K5me/H4K5) (protein NUP50 (Q9UKX7), SILAC run B6): -0.4605 | C6 log (H4K5me/H4K5) (protein NUP50 (Q9UKX7), SILAC run C6): -0.7522 | B6 log2 (H4K5me/H4K5) (protein NUP155 (E9PF10), run B6): 0.07566 | C6 log (H4K5me/H4K5) (protein NUP155 (E9PF10), run C6): -0.7649 | B6 log2 (H4K5me/H4K5) (protein O00148 DDX39A, run B6): 0.27 | C6 log (H4K5me/H4K5) (protein O00148 DDX39A, run C6): 0.3231 | B6 log2 (H4K5me/H4K5) (protein O14654 IRS4, run B6): 0.1263 | C6 log (H4K5me/H4K5) (protein O14654 IRS4, run C6): -0.4253 | B6 log2 (H4K5me/H4K5) (protein O43913 ORC5, run B6): 0.3319 | C6 log (H4K5me/H4K5) (protein O43913 ORC5, run C6): -0.06246 | B6 log2 (H4K5me/H4K5) (protein O75643 SNRNP200, run B6): 0.3604 | C6 log (H4K5me/H4K5) (protein O75643 SNRNP200, run C6): 0.09513 | B6 log2 (H4K5me/H4K5) (protein P02545 LMNA, run B6): 0.2721 | C6 log (H4K5me/H4K5) (protein P02545 LMNA, run C6): 0.02171 | B6 log2 (H4K5me/H4K5) (protein P12277 CKB, run B6): 0.5555 | C6 log (H4K5me/H4K5) (protein P12277 CKB, run C6): 0.5555 | B6 log2 (H4K5me/H4K5) (protein P23526 AHCY, run B6): 0.2772 | C6 log (H4K5me/H4K5) (protein P23526 AHCY, run C6): -0.08509 | B6 log2 (H4K5me/H4K5) (protein P24468 NR2F2, run B6): 0.1201 | C6 log (H4K5me/H4K5) (protein P24468 NR2F2, run C6): 0.3564 | B6 log2 (H4K5me/H4K5) (protein P26639 TARS, run B6): 0.298 | C6 log (H4K5me/H4K5) (protein P26639 TARS, run C6): 0.01983 | B6 log2 (H4K5me/H4K5) (protein P30153 PPP2R1A, run B6): 0.456 | C6 log (H4K5me/H4K5) (protein P30153 PPP2R1A, run C6): 0.089
